This is one part of the list. Rule as the data show it: active = 0.5 or less and inactive = the rest. Many values rest on one well or one pass, so single values are uncertain.

The experiment deals with SK-MEL-28. Description: EEF2K protein level normalised to actin (western blot) after treatment (ratio (EEF2K/Actin)); higher = more EEF2K protein remaining (less EEF2K suppression). To be noted: 5 µM; 24 h.
Take `CNC(=O)c1ccc(N2C(=S)N(c3cnc(C#N)c(C(F)(F)F)c3)C(=O)C23CCC3)cc1F`: the “EEF2K protein level normalised to actin” value is inactive: 0.56.

`CCc1nc(C(N)=O)c(Nc2ccc(N3CCC(N4CCN(C)CC4)CC3)c(OC)c2)nc1NC1CCOCC1` [Gilteritinib (ASP2215)]: the “EEF2K protein level normalised to actin” value was inactive: 4.32.

Turning to `CCCCCCCCCCCCCCCCCCOP(=O)([O-])OC1CC[N+](C)(C)CC1` [Perifosine (KRX-0401)], the “EEF2K protein level normalised to actin” value was inactive: 2.09.

Consider `N#CC[C@H](C1CCCC1)n1cc(-c2ncnc3[nH]ccc23)cn1`, for which the “EEF2K protein level normalised to actin” value was inactive: 1.98.

Turning to `O=c1c(-c2ccc(O)cc2)coc2cc(O)cc(O)c12` [Genistein], the “EEF2K protein level normalised to actin” value was inactive: 1.73.

For the compound `O=S(=O)(O)CCS` [Mesna], the “EEF2K protein level normalised to actin” value was inactive: 0.55.

Take `Nc1cc(F)ccc1NC(=O)c1ccc(CNC(=O)/C=C/c2cccnc2)cc1` [Tucidinostat (Chidamide)]: the “EEF2K protein level normalised to actin” value was inactive: 0.76.

`COc1nc(N)nc2c1ncn2[C@@H]1O[C@H](CO)[C@@H](O)[C@@H]1O` [Nelarabine]: the “EEF2K protein level normalised to actin” value is inactive: 4.32.

Take `CC(=O)OCC(=O)[C@@]1(O)CC[C@H]2[C@@H]3CCC4=CC(=O)CC[C@]4(C)[C@H]3C(=O)C[C@@]21C` [Cortisone acetate]: the “EEF2K protein level normalised to actin” value was inactive: 2.34.

(Values after the supplement of paper PMC8858631.)
